{
  "sequences": {"note": "Sequences of proteins named here, by UniProt entry; tags and fusion partners are left off. A change or cut given only in a name is not applied to a line headed by its entry.", "UniProt Q9H2P0": "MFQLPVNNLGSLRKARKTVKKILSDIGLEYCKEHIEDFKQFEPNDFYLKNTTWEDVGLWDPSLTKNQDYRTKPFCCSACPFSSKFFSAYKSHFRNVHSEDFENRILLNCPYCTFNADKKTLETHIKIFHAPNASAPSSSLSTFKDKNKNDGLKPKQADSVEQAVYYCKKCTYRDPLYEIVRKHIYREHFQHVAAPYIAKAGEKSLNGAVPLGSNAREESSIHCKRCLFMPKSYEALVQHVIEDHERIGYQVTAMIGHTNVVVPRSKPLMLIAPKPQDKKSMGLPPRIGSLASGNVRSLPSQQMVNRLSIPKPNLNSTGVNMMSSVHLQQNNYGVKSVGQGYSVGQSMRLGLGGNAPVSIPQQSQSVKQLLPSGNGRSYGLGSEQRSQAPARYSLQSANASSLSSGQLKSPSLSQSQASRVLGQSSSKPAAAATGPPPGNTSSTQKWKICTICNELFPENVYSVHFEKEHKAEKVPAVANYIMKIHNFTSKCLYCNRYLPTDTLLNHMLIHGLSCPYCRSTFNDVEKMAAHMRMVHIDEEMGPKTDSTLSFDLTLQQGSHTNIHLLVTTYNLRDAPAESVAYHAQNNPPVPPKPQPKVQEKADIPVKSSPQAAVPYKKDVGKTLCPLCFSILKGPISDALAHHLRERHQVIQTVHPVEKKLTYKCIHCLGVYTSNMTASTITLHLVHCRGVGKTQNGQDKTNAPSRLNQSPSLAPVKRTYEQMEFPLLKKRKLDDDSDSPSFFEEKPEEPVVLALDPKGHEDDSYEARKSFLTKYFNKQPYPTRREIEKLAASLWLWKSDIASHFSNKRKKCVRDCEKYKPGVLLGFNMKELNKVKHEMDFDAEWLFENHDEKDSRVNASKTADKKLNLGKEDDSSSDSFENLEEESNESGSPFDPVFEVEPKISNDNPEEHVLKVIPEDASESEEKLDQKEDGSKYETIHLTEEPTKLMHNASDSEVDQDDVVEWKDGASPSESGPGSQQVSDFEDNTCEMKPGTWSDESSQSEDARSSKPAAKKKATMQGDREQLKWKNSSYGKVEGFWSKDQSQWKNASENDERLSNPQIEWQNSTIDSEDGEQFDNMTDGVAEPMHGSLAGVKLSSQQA", "UniProt Q15067": "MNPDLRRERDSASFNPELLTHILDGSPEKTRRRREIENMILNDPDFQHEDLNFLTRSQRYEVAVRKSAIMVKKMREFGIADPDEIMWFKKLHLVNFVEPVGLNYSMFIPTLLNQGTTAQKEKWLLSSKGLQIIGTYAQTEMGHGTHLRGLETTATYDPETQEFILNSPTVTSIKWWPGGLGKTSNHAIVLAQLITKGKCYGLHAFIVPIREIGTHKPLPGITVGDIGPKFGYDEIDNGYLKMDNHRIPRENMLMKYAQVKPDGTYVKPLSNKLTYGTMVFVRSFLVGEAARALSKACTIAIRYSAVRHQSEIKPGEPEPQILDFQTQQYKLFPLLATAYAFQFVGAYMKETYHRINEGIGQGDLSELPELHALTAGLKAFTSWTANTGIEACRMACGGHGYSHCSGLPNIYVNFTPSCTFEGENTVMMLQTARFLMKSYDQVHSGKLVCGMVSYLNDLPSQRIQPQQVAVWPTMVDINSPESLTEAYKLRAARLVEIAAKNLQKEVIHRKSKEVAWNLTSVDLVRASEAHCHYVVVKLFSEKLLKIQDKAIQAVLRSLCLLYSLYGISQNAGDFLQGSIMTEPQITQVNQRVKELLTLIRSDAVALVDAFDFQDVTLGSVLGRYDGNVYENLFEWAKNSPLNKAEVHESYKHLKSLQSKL", "UniProt Q16186": "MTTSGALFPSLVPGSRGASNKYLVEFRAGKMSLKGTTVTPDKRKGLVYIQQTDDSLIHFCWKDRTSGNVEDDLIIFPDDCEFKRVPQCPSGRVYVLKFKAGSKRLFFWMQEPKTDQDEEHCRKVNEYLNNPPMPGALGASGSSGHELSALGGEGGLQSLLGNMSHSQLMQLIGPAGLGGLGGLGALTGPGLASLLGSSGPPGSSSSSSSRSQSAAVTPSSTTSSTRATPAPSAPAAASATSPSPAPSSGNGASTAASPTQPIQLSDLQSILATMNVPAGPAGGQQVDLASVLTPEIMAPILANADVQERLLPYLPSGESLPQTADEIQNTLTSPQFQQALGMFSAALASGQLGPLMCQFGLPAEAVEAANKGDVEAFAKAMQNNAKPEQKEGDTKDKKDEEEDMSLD", "UniProt P51828": "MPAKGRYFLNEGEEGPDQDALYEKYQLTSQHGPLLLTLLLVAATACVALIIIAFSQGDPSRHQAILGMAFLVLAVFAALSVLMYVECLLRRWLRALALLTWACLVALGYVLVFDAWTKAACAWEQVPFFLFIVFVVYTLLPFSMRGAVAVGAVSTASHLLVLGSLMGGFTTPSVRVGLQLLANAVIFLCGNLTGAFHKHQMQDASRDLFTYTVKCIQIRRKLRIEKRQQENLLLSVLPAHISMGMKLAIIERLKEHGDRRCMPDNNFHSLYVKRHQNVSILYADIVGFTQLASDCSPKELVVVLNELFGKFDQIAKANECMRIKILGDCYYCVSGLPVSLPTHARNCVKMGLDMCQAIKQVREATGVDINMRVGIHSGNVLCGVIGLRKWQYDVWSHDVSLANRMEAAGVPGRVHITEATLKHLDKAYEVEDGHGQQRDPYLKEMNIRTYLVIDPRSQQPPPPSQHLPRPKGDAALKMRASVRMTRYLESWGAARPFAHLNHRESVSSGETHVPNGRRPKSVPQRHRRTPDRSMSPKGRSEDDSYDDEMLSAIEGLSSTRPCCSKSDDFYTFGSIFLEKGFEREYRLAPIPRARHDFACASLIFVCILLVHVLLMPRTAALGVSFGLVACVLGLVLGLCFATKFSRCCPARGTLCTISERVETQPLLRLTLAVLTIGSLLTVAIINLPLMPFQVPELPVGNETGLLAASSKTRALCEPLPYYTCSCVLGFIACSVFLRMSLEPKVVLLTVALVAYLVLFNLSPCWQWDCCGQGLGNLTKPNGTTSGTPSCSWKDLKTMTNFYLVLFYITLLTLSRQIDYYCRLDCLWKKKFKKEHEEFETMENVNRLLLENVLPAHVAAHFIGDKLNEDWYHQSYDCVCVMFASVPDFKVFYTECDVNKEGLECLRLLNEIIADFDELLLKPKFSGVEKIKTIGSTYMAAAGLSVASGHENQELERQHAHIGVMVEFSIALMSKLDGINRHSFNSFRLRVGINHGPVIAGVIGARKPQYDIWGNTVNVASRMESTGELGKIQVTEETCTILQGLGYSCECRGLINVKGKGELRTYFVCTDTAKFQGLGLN", "UniProt O00154": "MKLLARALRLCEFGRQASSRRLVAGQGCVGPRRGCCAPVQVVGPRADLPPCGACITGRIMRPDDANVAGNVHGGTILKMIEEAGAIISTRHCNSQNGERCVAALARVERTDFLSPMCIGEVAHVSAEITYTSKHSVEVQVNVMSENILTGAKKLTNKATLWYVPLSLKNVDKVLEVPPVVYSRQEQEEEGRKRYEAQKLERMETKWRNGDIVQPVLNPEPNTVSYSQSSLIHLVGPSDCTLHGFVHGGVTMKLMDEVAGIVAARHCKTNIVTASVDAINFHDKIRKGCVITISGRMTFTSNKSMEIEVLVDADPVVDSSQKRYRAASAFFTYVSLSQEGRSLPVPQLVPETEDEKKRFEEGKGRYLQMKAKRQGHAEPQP", "UniProt P11117": "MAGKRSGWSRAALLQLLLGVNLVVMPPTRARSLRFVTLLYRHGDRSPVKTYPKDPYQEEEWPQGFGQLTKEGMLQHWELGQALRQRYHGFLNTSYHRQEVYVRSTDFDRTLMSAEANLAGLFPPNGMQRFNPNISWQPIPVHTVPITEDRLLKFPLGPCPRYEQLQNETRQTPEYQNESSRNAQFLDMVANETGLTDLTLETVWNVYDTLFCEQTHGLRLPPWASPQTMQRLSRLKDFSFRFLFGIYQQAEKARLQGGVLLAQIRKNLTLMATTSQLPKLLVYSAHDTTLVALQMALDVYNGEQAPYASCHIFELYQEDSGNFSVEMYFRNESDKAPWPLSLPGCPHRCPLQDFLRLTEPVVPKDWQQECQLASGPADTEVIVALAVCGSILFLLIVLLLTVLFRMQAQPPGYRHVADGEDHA", "UniProt Q9H9F9, whole entry, looked up": "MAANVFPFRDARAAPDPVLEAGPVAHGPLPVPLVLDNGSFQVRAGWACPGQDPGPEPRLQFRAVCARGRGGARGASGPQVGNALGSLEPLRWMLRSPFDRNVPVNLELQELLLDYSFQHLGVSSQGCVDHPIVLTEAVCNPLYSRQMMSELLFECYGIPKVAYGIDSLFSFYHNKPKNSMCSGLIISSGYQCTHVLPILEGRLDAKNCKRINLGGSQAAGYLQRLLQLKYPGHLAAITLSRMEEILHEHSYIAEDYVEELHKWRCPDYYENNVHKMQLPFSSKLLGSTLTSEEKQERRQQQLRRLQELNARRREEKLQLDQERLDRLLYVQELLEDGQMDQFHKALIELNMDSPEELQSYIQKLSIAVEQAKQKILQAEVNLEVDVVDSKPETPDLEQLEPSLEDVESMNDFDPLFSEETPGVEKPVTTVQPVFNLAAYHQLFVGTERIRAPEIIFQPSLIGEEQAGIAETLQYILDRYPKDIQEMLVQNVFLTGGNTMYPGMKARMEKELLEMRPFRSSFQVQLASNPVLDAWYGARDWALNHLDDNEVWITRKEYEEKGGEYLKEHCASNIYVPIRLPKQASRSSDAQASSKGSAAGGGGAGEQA", "UniProt Q53H12": "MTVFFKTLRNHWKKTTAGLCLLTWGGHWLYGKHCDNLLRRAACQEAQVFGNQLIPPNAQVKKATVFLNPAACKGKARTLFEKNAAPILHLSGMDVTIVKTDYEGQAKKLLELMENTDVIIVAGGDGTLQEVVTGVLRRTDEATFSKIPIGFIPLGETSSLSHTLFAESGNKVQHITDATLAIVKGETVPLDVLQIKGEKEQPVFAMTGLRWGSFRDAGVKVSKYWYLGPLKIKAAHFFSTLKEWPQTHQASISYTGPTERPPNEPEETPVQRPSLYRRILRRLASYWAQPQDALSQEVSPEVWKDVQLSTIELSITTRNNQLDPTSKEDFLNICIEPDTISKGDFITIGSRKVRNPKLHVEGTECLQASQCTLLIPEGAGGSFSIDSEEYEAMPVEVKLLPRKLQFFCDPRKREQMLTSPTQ", "UniProt O43707, whole entry, looked up": "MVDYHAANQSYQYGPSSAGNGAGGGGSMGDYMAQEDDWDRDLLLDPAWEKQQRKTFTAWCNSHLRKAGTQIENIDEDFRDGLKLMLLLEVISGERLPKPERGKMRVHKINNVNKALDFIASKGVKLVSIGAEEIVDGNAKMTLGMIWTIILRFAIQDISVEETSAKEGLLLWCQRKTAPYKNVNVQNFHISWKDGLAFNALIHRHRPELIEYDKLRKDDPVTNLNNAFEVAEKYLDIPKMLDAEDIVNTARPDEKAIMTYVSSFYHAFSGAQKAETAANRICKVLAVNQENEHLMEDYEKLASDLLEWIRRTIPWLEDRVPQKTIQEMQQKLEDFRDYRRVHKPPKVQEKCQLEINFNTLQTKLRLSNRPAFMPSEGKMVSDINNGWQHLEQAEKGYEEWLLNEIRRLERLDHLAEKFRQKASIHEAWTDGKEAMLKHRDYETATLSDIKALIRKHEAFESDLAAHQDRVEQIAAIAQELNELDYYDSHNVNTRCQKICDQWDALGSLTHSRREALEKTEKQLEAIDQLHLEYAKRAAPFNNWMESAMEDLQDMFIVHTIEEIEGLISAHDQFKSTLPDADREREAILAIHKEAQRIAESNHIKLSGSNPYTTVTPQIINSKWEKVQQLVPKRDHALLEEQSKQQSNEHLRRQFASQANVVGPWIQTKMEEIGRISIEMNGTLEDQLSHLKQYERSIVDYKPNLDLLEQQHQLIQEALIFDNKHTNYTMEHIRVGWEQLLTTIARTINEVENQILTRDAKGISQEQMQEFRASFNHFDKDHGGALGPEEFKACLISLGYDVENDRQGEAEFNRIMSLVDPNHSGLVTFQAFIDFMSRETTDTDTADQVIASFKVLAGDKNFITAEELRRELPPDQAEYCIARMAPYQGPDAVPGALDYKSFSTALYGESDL", "UniProt Q8WV93": "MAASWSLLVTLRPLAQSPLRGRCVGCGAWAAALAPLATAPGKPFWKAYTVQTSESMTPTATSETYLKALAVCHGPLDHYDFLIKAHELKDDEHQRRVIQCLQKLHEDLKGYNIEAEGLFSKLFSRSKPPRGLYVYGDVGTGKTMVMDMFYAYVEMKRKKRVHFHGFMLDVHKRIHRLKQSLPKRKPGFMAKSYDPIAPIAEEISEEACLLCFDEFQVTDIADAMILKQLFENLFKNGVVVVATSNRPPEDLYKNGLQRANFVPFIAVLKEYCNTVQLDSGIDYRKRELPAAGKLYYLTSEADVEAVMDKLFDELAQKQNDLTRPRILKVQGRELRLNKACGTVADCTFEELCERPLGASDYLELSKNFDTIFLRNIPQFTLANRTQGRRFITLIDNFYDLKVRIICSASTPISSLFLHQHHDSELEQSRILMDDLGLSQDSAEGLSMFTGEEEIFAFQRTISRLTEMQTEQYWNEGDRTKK"},
  "source": "the supplement of paper PMC12067093",
  "about": "“Discovery and optimisation of a covalent ligand for TRIM25 and its application to targeted protein ubiquitination” (Chemical Science, 2025)",
  "compound": "CC1Cc2ccccc2N1C(=O)C1CCCN(C1)C(=O)CCl (mixture of isomers) [TRIM25 ligand 11 (diastereomer mixture)]",
  "assay": "probe-labelled cysteine peptide fold change vs DMSO (competition) (log2 fold change); higher = less target engagement (more negative = stronger competition)",
  "settings": "THP-1, incubation time: 4 h",
  "note": "The list shows a part of the results.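 Further: competitive chemoproteomic profiling in live THP-1 cells with an iodoacetamide desthiobiotin (IA-DTB) probe, comparing probe-labelled peptide intensities in compound-treated cells against DMSO-treated controls.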",
  "data": [
    {"target": "ADNP_Q9H2P0_112_ILLNCPYCTFNADKK (UniProt Q9H2P0)", "values": [
      {"measurement": "probe-labelled cysteine peptide fold change", "setting": "10 µM", "result": -0.057},
      {"measurement": "probe-labelled cysteine peptide fold change", "setting": "50 µM", "result": -0.0144}
    ]},
    {"target": "ACTR3_P61158_34_LGYAGNTEPQFIIPSCIAIK (UniProt P61158)", "values": [
      {"measurement": "probe-labelled cysteine peptide fold change", "setting": "10 µM", "result": 0.112},
      {"measurement": "probe-labelled cysteine peptide fold change", "setting": "50 µM", "result": 0.000378}
    ]},
    {"target": "ADA_P00813_262_LRQENMHFEICPWSSYLTGAWKPDTEHAVIR (UniProt P00813)", "values": [
      {"measurement": "probe-labelled cysteine peptide fold change", "setting": "10 µM", "result": -0.152},
      {"measurement": "probe-labelled cysteine peptide fold change", "setting": "50 µM", "result": -0.106}
    ]},
    {"target": "ACOX1_Q15067_392_AFTSWTANTGIEACR (UniProt Q15067)", "values": [
      {"measurement": "probe-labelled cysteine peptide fold change", "setting": "10 µM", "result": -0.0794},
      {"measurement": "probe-labelled cysteine peptide fold change", "setting": "50 µM", "result": 0.0502}
    ]},
    {"target": "ADRM1_Q16186_121_TDQDEEHCRK (UniProt Q16186)", "values": [
      {"measurement": "probe-labelled cysteine peptide fold change", "setting": "10 µM", "result": -0.0322},
      {"measurement": "probe-labelled cysteine peptide fold change", "setting": "50 µM", "result": 0.00409}
    ]},
    {"target": "ADCY7_P51828_382_VGIHSGNVLCGVIGLR (UniProt P51828)", "values": [
      {"measurement": "probe-labelled cysteine peptide fold change", "setting": "10 µM", "result": -0.00813},
      {"measurement": "probe-labelled cysteine peptide fold change", "setting": "50 µM", "result": -0.0188}
    ]},
    {"target": "ACOT7_O00154_288_KGCVITISGR (UniProt O00154)", "values": [
      {"measurement": "probe-labelled cysteine peptide fold change", "setting": "10 µM", "result": -0.124},
      {"measurement": "probe-labelled cysteine peptide fold change", "setting": "50 µM", "result": -0.0334}
    ]},
    {"target": "ACP2_P11117_159_FPLGPCPR (UniProt P11117)", "values": [
      {"measurement": "probe-labelled cysteine peptide fold change", "setting": "10 µM", "result": -0.0242},
      {"measurement": "probe-labelled cysteine peptide fold change", "setting": "50 µM", "result": -0.0275}
    ]},
    {"target": "ACTR5_Q9H9F9_48_AGWACPGQDPGPEPR (UniProt Q9H9F9)", "values": [
      {"measurement": "probe-labelled cysteine peptide fold change", "setting": "10 µM", "result": 0.0286},
      {"measurement": "probe-labelled cysteine peptide fold change", "setting": "50 µM", "result": -0.0707}
    ]},
    {"target": "AGK_Q53H12_408_LQFFCDPR (UniProt Q53H12)", "values": [
      {"measurement": "probe-labelled cysteine peptide fold change", "setting": "10 µM", "result": -0.282},
      {"measurement": "probe-labelled cysteine peptide fold change", "setting": "50 µM", "result": 0.135}
    ]},
    {"target": "ADNP_Q9H2P0_226_CLFMPK (UniProt Q9H2P0)", "values": [
      {"measurement": "probe-labelled cysteine peptide fold change", "setting": "10 µM", "result": 0.25},
      {"measurement": "probe-labelled cysteine peptide fold change", "setting": "50 µM", "result": 0.0186}
    ]},
    {"target": "ADK_P55263_140+143_AAEAHVDAHYYEQNEQPTGTCAACITGDNR (UniProt P55263)", "values": [
      {"measurement": "probe-labelled cysteine peptide fold change", "setting": "10 µM", "result": 0.0261},
      {"measurement": "probe-labelled cysteine peptide fold change", "setting": "50 µM", "result": -0.0499}
    ]},
    {"target": "ACTN4_O43707_495_CQKICDQWDALGSLTHSRR (UniProt O43707)", "values": [
      {"measurement": "probe-labelled cysteine peptide fold change", "setting": "10 µM", "result": -0.106},
      {"measurement": "probe-labelled cysteine peptide fold change", "setting": "50 µM", "result": -0.122}
    ]},
    {"target": "AFG1L_Q8WV93_72_ALAVCHGPLDHYDFLIK (UniProt Q8WV93)", "values": [
      {"measurement": "probe-labelled cysteine peptide fold change", "setting": "10 µM", "result": 0.129},
      {"measurement": "probe-labelled cysteine peptide fold change", "setting": "50 µM", "result": 0.114}
    ]}
  ]
}
